Results: patent US10967000B2, “Cell-penetrating peptide, conjugate comprising same and composition comprising same” (GemVax & KAEL Co., Ltd., priority 2012, dated 2021)

System: MCF7, Huh7, HepG2
Test: Confocal microscope analysis of intracellular localization of PEP1 and TAT
Format: cell-based, human
Settings: Pearson's Coeff. of co-localization with nucleus

EARPALLTSRLRFIPK (listed as Homo sapiens) [pep1]
intracellular localization: stayed in the cytoplasm without being localized into the nucleus
